Test results taken from paper PMC10937794.
Results are given in words; binding and its absence hold for the method and conditions named. Binding seen in cells or lysates may run through a third protein. These calls come from enrichment with a bait or labelling near it, and not all partners need be listed.

Chains of the proteins cited; added tags and fusions are not shown.
UniProt Q9H6I2: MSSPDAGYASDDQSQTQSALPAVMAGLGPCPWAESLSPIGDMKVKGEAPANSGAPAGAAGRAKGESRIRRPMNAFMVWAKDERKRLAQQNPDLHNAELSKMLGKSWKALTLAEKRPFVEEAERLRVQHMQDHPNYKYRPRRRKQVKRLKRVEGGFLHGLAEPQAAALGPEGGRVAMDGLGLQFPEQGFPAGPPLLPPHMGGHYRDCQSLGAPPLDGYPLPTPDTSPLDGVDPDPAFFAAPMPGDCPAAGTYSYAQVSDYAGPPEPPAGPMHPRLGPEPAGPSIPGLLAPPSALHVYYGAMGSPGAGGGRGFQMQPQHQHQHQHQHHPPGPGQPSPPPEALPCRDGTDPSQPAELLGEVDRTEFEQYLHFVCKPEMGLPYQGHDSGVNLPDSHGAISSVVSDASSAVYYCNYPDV
UniProt Q9R0P9: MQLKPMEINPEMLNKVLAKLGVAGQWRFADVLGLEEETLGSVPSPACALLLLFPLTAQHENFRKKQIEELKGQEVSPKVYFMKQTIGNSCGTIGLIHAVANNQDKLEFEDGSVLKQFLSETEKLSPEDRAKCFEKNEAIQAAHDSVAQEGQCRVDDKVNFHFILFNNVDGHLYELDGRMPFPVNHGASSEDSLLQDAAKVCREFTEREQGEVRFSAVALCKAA

Target: Flag-Sox17 expressed in vascular endothelial cells (UniProt Q9H6I2)
Assay: affinity purification with mass spectrometry; Flag-Sox17 expressed in vascular endothelial cells; whole protein lysate on anti-Flag magnetic beads, eluted with 3 x Flag peptide, SDS-PAGE, silver staining and MS

binding: binds
Substance: Ubiquitin C-terminal hydrolase L1 (UCHL1), endogenous in endothelial cells (from UniProt Q9R0P9 1-223) (enzyme)
